Test [1] deals with T1, endogenous cytosolic HSC20 (C-HSC20) (human (endogenous in HeLa)) (UniProt Q8IWL3).
T1 sequence: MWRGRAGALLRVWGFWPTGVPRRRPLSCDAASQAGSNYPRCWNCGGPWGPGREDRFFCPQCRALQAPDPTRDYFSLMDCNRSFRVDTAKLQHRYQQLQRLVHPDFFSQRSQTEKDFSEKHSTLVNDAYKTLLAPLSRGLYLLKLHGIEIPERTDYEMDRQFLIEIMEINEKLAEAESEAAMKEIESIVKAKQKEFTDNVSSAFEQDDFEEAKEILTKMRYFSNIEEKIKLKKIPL
The experiment in a line: co-IP; endogenous proteins; cytosolic fraction of HeLa cells incubated with rabbit anti-HSC20 antibody coupled to amine-reactive resin, 4 °C overnight, acidic elution (Tris-glycine, pH 2.8), Western blot with anti-HSC20 and anti-ALAD. Background: Immunoblotting shows a protein as a band on a membrane.

Test [2] deals with T2, C-terminally FLAG/MYC-tagged AFR-AAA ALAD mutant (human) (UniProt P13716).
T2 sequence: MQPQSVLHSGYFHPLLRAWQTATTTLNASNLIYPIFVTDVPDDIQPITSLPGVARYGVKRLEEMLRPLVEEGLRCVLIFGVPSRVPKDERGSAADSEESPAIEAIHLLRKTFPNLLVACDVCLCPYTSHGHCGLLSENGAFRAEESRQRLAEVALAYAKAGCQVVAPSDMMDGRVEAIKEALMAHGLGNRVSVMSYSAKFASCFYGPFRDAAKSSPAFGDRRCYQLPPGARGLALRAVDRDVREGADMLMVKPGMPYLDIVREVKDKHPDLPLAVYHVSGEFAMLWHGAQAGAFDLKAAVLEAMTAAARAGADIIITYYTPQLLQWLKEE
Briefly: co-IP; whole-cell lysates of HeLa cells transfected with FLAG/MYC-tagged ALAD, anti-FLAG M2 affinity gel, 4 °C overnight, acidic elution (Tris-glycine, pH 2.8), Western blot.

No constants are given. Whether binding was seen depends on the method and setting. Binding seen in cells or lysates may run through a third protein. Some binding calls cover weakened binding; strength is not graded here. For some assays here: Sequences can lack the tags named with a protein.

With “human aminolevulinic acid dehydratase (ALAD), endogenous (from UniProt P13716 1-330) (enzyme)”, the binding result in test [1] is listed as “binds”.

B1: endogenous cytosolic HSC20 (C-HSC20) (protein, UniProt Q8IWL3 1-235)
chain: MWRGRAGALLRVWGFWPTGVPRRRPLSCDAASQAGSNYPRCWNCGGPWGPGREDRFFCPQCRALQAPDPTRDYFSLMDCNRSFRVDTAKLQHRYQQLQRLVHPDFFSQRSQTEKDFSEKHSTLVNDAYKTLLAPLSRGLYLLKLHGIEIPERTDYEMDRQFLIEIMEINEKLAEAESEAAMKEIESIVKAKQKEFTDNVSSAFEQDDFEEAKEILTKMRYFSNIEEKIKLKKIPL
On to B1, for which the binding entry in test [2] was “no binding”.
